# In PubChem BioAssay AID504834 (National Center for Advancing Translational Sciences (NCATS), 2011):
# About 22,000 (6.9%) of roughly 320,000 compounds were called active. The shares of active, inactive and inconclusive entries below differ from those in the screen. The call rests on the fitted dose curve; in most records, active means well fitted inhibition curve with a large enough effect; inconclusive means small, poorly fitted or top-dose-only effect, or another doubt; inactive means no such curve, though single readings can be large or run the other way. A potency beside an inconclusive call is a rough fit, not a confirmed value.
# Assay: Primary qHTS for delayed death inhibitors of the malarial parasite plastid, 96 hour incubation
# Conditions: P. falciparum luciferase reporter growth; series mostly up to 28.7 µM
# In short: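 Two parasite generations (96 h, 37 C, 5% CO2) of compound exposure in infected erythrocytes (0.05% parasitemia, 2% hematocrit). Luciferase-reporter P. falciparum; decreased luminescence indicates inhibited growth, aimed at apicoplast-acting delayed death.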
# Potency means the concentration at half of the fitted maximal effect.
row,SMILES,Potency
1,CCOc1cccc(NC(=O)CSc2nc(C)c3c(c2C#N)CCCC3)c1,inactive
2,COc1ccc(C(=O)Oc2cc(C)[nH]c(=O)c2[N+](=O)[O-])cc1,inactive
3,CSc1nsc(SCC(=O)Nc2nc3ccc(C)cc3s2)n1,inactive
4,COc1ccc(CNC(=O)c2ccccc2NC(=O)C2=CSCCO2)c(OC)c1,"inconclusive: 18.5 µM [inhibitor, single point]"
5,O=C1C2CCCN2C(c2ccccc2F)N1c1cccc(Cl)c1 (stereo unspecified),"inconclusive: 18.5 µM [inhibitor, single point]"
6,Cc1cc2oc3c(c(=O)c2cc1C)C(c1ccc(C(C)C)cc1)N(CCCN1CCOCC1)C3=O (stereo unspecified),"inconclusive: 0.329 µM [inhibitor, full curve, poor fit]"
7,CN1c2ccccc2C(C)(C)C12CC(c1ccc(Cl)c(S(=O)(=O)N3CCCC3)c1)=NO2 (stereo unspecified),"inconclusive: 1.65 µM [inhibitor, partial curve, poor fit]"
8,COc1ccc(C2C(C(=O)/C=C/c3ccco3)=C(O)C(=O)N2CCN2CCOCC2)cc1OC (stereo unspecified),inactive
9,CCOc1ccc(NC(=O)Nc2ccc3nccnc3c2)cc1,"inconclusive: 13.1 µM [inhibitor, single point]"
10,CC(=O)Nc1ccc(-c2sc(Nc3ccccc3)n[n+]2C)cc1,inactive
11,Cc1ccc2c(c1)CCCN2C(=O)Nc1ccc2c(c1)OCO2,"inconclusive: 18.5 µM [inhibitor, single point]"
12,O=C(O)/C=C/C(=O)N1CCN(S(=O)(=O)c2cc(C(F)(F)F)ccc2Cl)CC1,"inconclusive: 18.5 µM [inhibitor, single point]"
13,CCOC(=O)C1CCN(C(=O)COC(=O)Cc2ccc(Cl)cc2)CC1,inactive
14,O=C(O)CCCNC(=O)/C=C/c1ccco1,inactive
15,COC(=O)c1ccc(C2c3c(oc4cc(C)c(C)cc4c3=O)C(=O)N2CCCN(C)C)cc1 (stereo unspecified),inactive
16,Cc1ccc(S(=O)(=O)CCC(=O)OCC(=O)c2cc(C)n(C)c2C)cc1,inactive
17,O=C(c1ccccc1)C1C(c2ccccc2)C1[N+](=O)[O-] (stereo unspecified),inactive
18,C=CCC1NS(=O)(=O)OC(COC)C1C (stereo unspecified),"inconclusive: 18.5 µM [inhibitor, single point]"
19,CCOc1ccccc1CN1CCN(Cc2c[nH]c3ccccc23)CC1CCO (stereo unspecified),"inconclusive: 10.4 µM [inhibitor, single point]"
20,Cc1c(CN2CC[C@@H](N3CCN(c4ccccn4)CC3)[C@H](O)C2)[nH]c2ccc(F)cc12,"inconclusive: 13.1 µM [inhibitor, single point]"
21,Cc1c(N2C(=O)c3cccc4cccc(c34)C2=O)c(=O)n(-c2ccccc2)n1C,"inconclusive: 20.8 µM [inhibitor, single point]"

# 3 structures out of the list, sorted by length of the SMILES, rising.
row,SMILES,Potency
19,CCOc1ccccc1CN1CCN(Cc2c[nH]c3ccccc23)CC1CCO (stereo unspecified),"inconclusive: 10.4 µM [inhibitor, single point]"
21,Cc1c(N2C(=O)c3cccc4cccc(c34)C2=O)c(=O)n(-c2ccccc2)n1C,"inconclusive: 20.8 µM [inhibitor, single point]"
8,COc1ccc(C2C(C(=O)/C=C/c3ccco3)=C(O)C(=O)N2CCN2CCOCC2)cc1OC (stereo unspecified),inactive
